This is one part of the list. These are further read-outs of the screen, such as a control signal, another cell line or another target. No call is given for them. Compounds called inactive in the main read-out are mostly missing here. Words in brackets tell the shape of the fitted curve; partial curves, single points and poor fits give uncertain potencies.
Test: qHTS Assay for Modulators of Lamin A Splicing
Settings: HeLa LMNA splicing GFP/RFP minigene ratio, 48 h
Summary of the method: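 S3 HeLa stable clones carrying a lamin A-EGFP splicing minigene plus DsRed2 were seeded at 600 cells/well in Opti-MEM with 2% FBS, pin-dosed and incubated 48 h at 37°C. Acumen cytometry (488 nm) gave the GFP/RFP total-intensity ratio.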

[1] = measured here: GFP splicing reporter channel
[2] = measured here: RFP viability control channel

**Q.** For `CCc1c(C)nc2ncnn2c1NCCc1ccc(OC)cc1`, which AC50 [1] is on record?
**A.** 14.1 µM [falling, partial curve]

**Q.** What about the AC50 [2] of the same molecule?
**A.** 17.8 µM [falling, single point]

**Q.** Which AC50 [1] does the source give for `CC1CCCN(CCCNC(=O)c2ccc3c(c2)N(Cc2cccc(Cl)c2)C(=O)c2ccccc2S3(=O)=O)C1` (stereo not drawn) here?
**A.** 12.6 µM [rising, partial curve, poor fit]

**Q.** What about the AC50 [2] of the same molecule?
**A.** 35.5 µM [rising, single point]

**Q.** Which AC50 [1] does the source give for `O=[N+]([O-])c1cccc(-c2csc(Nc3ccccc3)n2)c1` here?
**A.** 0.891 µM [falling, full curve]

**Q.** Which AC50 [2] does the source give for `CCCc1cc(C(=O)Nc2sc3c(c2C#N)CCC3)no1` here?
**A.** 31.6 µM [rising, single point]

**Q.** For `CCC(CC)C(=O)N1CCN(c2cccc(C)c2C)CC1`, which AC50 [2] is on record?
**A.** 35.5 µM [rising, single point]

**Q.** For `Cc1cc(C)cc(-n2nnnc2SCC(=O)Nc2nc(-c3ccc(F)cc3)cs2)c1`, which AC50 [2] is on record?
**A.** 0.355 µM [falling, single point]

**Q.** Which results are given for `Clc1ccc(-c2nc3ccccc3nc2-c2ccccc2)cc1`?
**A.** AC50 [1]: 11.2 µM [rising, partial curve]; AC50 [2]: 15.8 µM [rising, partial curve]

**Q.** Which AC50 [2] does the source give for `O=C(NCCN1C(=O)S/C(=C\c2ccc(F)cc2)C1=O)c1cccc(S(=O)(=O)N2CCOCC2)c1` here?
**A.** 8.91 µM [rising, partial curve, poor fit]

**Q.** With `O=C(NN1C(=O)c2ccccc2C1=O)C1C2CCCCC21` (stereo not drawn) as the molecule, how does the AC50 [2] read?
**A.** 35.5 µM [rising, single point]

**Q.** What does the source list for `O=S(=O)(c1cccc(-c2nc3ccccc3s2)c1)N1CCOCC1`?
**A.** AC50 [1]: 22.4 µM [rising, single point]; AC50 [2]: 25.1 µM [rising, single point]

**Q.** What does the source list for `Cc1cc(C2(c3ccc(O)c(C)c3)C(=O)Nc3ccccc32)ccc1O`?
**A.** AC50 [1]: 22.4 µM [falling, single point]; AC50 [2]: 35.5 µM [falling, single point]

**Q.** Which AC50 [2] does the source give for `COc1cccc(-n2sc3c(c2=S)-c2cc(OC)ccc2NC3(C)C)c1` here?
**A.** 0.0126 µM [falling, full curve]

**Q.** Which AC50 [2] does the source give for `CC(O)C(N)C(=O)O` (stereo not drawn) here?
**A.** 35.5 µM [rising, single point]

**Q.** Which AC50 [2] does the source give for `CC[n+]1c(S(=O)(=O)[O-])ccc2ccc(C)cc21` here?
**A.** 0.2 µM [falling, full curve, poor fit]

**Q.** Which AC50 [1] does the source give for `NC(=O)C1CCN(S(=O)(=O)Cc2ccccc2Cl)CC1` here?
**A.** 14.1 µM [falling, partial curve, poor fit]

**Q.** What about the AC50 [2] of the same molecule?
**A.** 5.01 µM [falling, partial curve]

**Q.** For `Cc1cnc(NC(=O)c2cc3c(s2)CCCC3)s1`, which AC50 [1] is on record?
**A.** 14.1 µM [rising, single point]

**Q.** What about the AC50 [2] of the same molecule?
**A.** 14.1 µM [rising, single point]

**Q.** With `COCC(=O)NNC(=O)c1ccccc1OC` as the molecule, how does the AC50 [2] read?
**A.** 17.8 µM [rising, single point]

**Q.** For `CN1CCC(=C2c3ccccc3CCc3sccc32)CC1`, which AC50 [1] is on record?
**A.** 0.00316 µM [falling, full curve, poor fit]

**Q.** And the AC50 [2]?
**A.** 14.1 µM [falling, partial curve, poor fit]

**Q.** Which results are given for `CC1CCC(N2CC(=O)N(C3CCCCC3)C(c3ccc(Cl)cc3)C2=O)CC1` (stereo not drawn)?
**A.** AC50 [1]: 0.501 µM [rising, full curve, poor fit]; AC50 [2]: 0.562 µM [rising, full curve, poor fit]

**Q.** Which AC50 [1] does the source give for `CCc1ccc(OCCCOc2ccc(C=O)cc2)cc1` here?
**A.** 7.08 µM [rising, partial curve]

**Q.** What about the AC50 [2] of the same molecule?
**A.** 7.08 µM [rising, partial curve]

**Q.** What does the source list for `COc1cccc(C(=O)Nc2nc3ccc(S(=O)(=O)N4CCCC4)cc3s2)c1`?
**A.** AC50 [1]: 1.12 µM [rising, full curve]; AC50 [2]: 1.58 µM [rising, partial curve, poor fit]

**Q.** For `Brc1ccc(C2CC(c3ccccc3)=Nc3ccccc3N2)cc1` (stereo not drawn), which AC50 [2] is on record?
**A.** 12.6 µM [rising, single point]

**Q.** For `Cc1ccc(NS(=O)(=O)c2ccc(-c3cnc(C4CC4)o3)cc2)cc1N(C)C`, which AC50 [2] is on record?
**A.** 1.58 µM [rising, full curve]

**Q.** With `CCOC(=O)c1nn(-c2cccc(C)c2)c2nc(-c3ccccc3)c(C#N)c(=O)n12` as the molecule, how does the AC50 [1] read?
**A.** 35.5 µM [rising, single point]

**Q.** Which AC50 [1] does the source give for `CCOc1ccccc1CNC(=O)CCc1c(C)nn(-c2ccc(N3CCCCC3)nn2)c1C` here?
**A.** 14.1 µM [falling, single point]

**Q.** For `CC(C)(C)C1CCc2onc(C(=O)NCc3ccc(F)cc3)c2C1` (stereo not drawn), which AC50 [1] is on record?
**A.** 12.6 µM [rising, partial curve, poor fit]

**Q.** And the AC50 [2]?
**A.** 15.8 µM [rising, single point]

**Q.** Which AC50 [1] does the source give for `O=C(COc1ccc(NC(=O)c2ccccc2[N+](=O)[O-])cc1)c1ccc(F)cc1` here?
**A.** 3.16 µM [rising, single point]

**Q.** And the AC50 [2]?
**A.** 0.0708 µM [falling, full curve, poor fit]

**Q.** Which AC50 [2] does the source give for `Cc1ccccc1NC(=O)c1cn(-c2ccccc2)nc1-c1ccccc1` here?
**A.** 10 µM [rising, partial curve, poor fit]

**Q.** Which AC50 [2] does the source give for `Cc1cnc(CNc2ncnc3ccc(-c4ccccc4Cl)cc23)cn1` here?
**A.** 12.6 µM [falling, single point]

**Q.** With `COc1cc(C(=S)N2CCOCC2)ccc1OS(=O)(=O)c1ccc(NC(C)=O)cc1` as the molecule, how does the AC50 [2] read?
**A.** 7.94 µM [rising, partial curve]

**Q.** For `CCN(CCCNC(=O)CC(C(=O)N1CCc2ccccc21)n1ccnc1)c1cccc(C)c1` (stereo not drawn), which AC50 [1] is on record?
**A.** 14.1 µM [rising, single point]

**Q.** And the AC50 [2]?
**A.** 22.4 µM [rising, single point]

**Q.** Which AC50 [2] does the source give for `COc1cc(/C=C/c2nc(N)nc(-c3ccccc3O)n2)cc(OC)c1OC` here?
**A.** 12.6 µM [rising, partial curve]

**Q.** For `Cc1cc(NC(=O)CN2C(=O)NC3(CCCCC3C)C2=O)no1` (stereo not drawn), which AC50 [2] is on record?
**A.** 0.0316 µM [falling, full curve, poor fit]

**Q.** Which AC50 [1] does the source give for `O=[N+]([O-])c1nn(-c2ccc3c(c2)OCCO3)n(O)c1=NCCC1=CCCCC1` here?
**A.** 10 µM [rising, partial curve]

**Q.** With `Cc1ccc(SCCC(=O)NCc2ccncc2)cc1` as the molecule, how does the AC50 [2] read?
**A.** 39.8 µM [falling, partial curve, poor fit]

**Q.** Which AC50 [1] does the source give for `CC(=O)Nc1c(C)nn(-c2ccccc2)c1N1CCC(C(=O)NCc2cccc(Cl)c2)CC1` here?
**A.** 3.16 µM [rising, full curve, poor fit]

**Q.** Which AC50 [2] does the source give for `Cc1ccc(/C=C(\C#N)c2nc3ccccc3[nH]2)s1` here?
**A.** 31.6 µM [rising, single point]

**Q.** For `COC(=O)C1Cc2ccccc2CN1C(=O)CCl` (stereo not drawn), which AC50 [2] is on record?
**A.** 35.5 µM [falling, single point]

**Q.** With `O=C(CSc1nc2cc3ccccc3cc2[nH]1)Nc1ccc(F)cc1` as the molecule, how does the AC50 [1] read?
**A.** 8.91 µM [rising, partial curve]

**Q.** And the AC50 [2]?
**A.** 11.2 µM [rising, partial curve]

**Q.** Which AC50 [1] does the source give for `CC(Cc1cccs1)NC(=S)Nc1ccc(Cl)c(Cl)c1` (stereo not drawn) here?
**A.** 35.5 µM [rising, single point]

**Q.** What about the AC50 [2] of the same molecule?
**A.** 35.5 µM [rising, single point]

**Q.** Which results are given for `Cc1onc(-c2ccccc2Cl)c1C(=O)N1CCN(c2nc3ccccc3s2)CC1`?
**A.** AC50 [1]: 8.91 µM [rising, partial curve]; AC50 [2]: 6.31 µM [rising, partial curve]

**Q.** Which AC50 [2] does the source give for `OCC[n+]1ccc(/C=C/c2c[nH]c3ccccc23)cc1` here?
**A.** 15.8 µM [rising, single point]

**Q.** With `COC(=O)c1ccc(COc2cccc3c2CCN(Cc2cccc(C)c2)C3=O)o1` as the molecule, how does the AC50 [2] read?
**A.** 17.8 µM [rising, single point]

**Q.** With `COc1ccc(NS(=O)(=O)c2cc(C)ccc2C)cc1` as the molecule, how does the AC50 [2] read?
**A.** 20 µM [rising, single point]

**Q.** With `Cc1cc(C)nc(/N=C(\N)N2CCCCC2)n1` as the molecule, how does the AC50 [2] read?
**A.** 2.24 µM [falling, full curve, poor fit]

**Q.** For `CC1CCc2onc(C(=O)N3CCN(c4ccc(F)cc4)CC3)c2C1` (stereo not drawn), which AC50 [2] is on record?
**A.** 0.0282 µM [falling, full curve, poor fit]

**Q.** For `CCCN(CCC)C(=O)c1cc(-c2ccc3c(c2)OCO3)nc2ccccc12`, which AC50 [1] is on record?
**A.** 22.4 µM [rising, single point]

**Q.** What about the AC50 [2] of the same molecule?
**A.** 22.4 µM [rising, single point]

**Q.** With `Cc1sc2nc(C3CC3)nc(SCC(=O)NCc3ccco3)c2c1C` as the molecule, how does the AC50 [1] read?
**A.** 11.2 µM [rising, partial curve]

**Q.** Which AC50 [1] does the source give for `Cc1cccc(CNc2ncnc3ccc(-c4cccc(C#N)c4)cc23)c1` here?
**A.** 35.5 µM [falling, single point]

**Q.** And the AC50 [2]?
**A.** 25.1 µM [falling, partial curve]

**Q.** Which AC50 [2] does the source give for `Cn1cc(Br)c(C(=O)NN2C(=O)C3C(C2=O)C2C=CC3C23CC3)n1` (stereo not drawn) here?
**A.** 20 µM [falling, single point]

**Q.** Which AC50 [2] does the source give for `O=C(NCCO)/C(=C\c1ccc2c(c1)OCO2)NC(=O)c1ccc(Br)cc1` here?
**A.** 1.58 µM [rising, partial curve]

**Q.** What does the source list for `COC(=O)c1ccc(Sc2ccc(Cl)cc2)c(N)c1`?
**A.** AC50 [1]: 12.6 µM [rising, single point]; AC50 [2]: 17.8 µM [rising, single point]

**Q.** Which AC50 [1] does the source give for `CCOc1ncccc1C(=O)Nc1cccc(-c2nnc3n2CCCCC3)c1` here?
**A.** 35.5 µM [falling, single point]

**Q.** For `Cc1ccc(-n2ncc3c(N(C)C)ncnc32)cc1Cl`, which AC50 [2] is on record?
**A.** 0.178 µM [falling, full curve, poor fit]

**Q.** For `Cc1cccc2sc(NNC(=O)c3cc(-c4cccs4)nc4ccccc34)nc12`, which AC50 [2] is on record?
**A.** 3.55 µM [rising, partial curve]

**Q.** For `COc1ccccc1Oc1nc(-c2ccccc2)cc(C)c1S(C)(=O)=O`, which AC50 [1] is on record?
**A.** 31.6 µM [rising, single point]

**Q.** What about the AC50 [2] of the same molecule?
**A.** 31.6 µM [rising, single point]

**Q.** For `CCCc1cc(-c2n[nH]c(=S)n2CC)c2ccccc2n1`, which AC50 [1] is on record?
**A.** 17.8 µM [rising, single point]

Reference: PubChem BioAssay AID1487 (National Center for Advancing Translational Sciences (NCATS), 2009)
